Measurements as given in paper PMC8864472.
These are yes or no findings as the source states them, for the method shown. Binding seen in cells or lysates may run through a third protein. These calls come from enrichment with a bait or labelling near it, and not all partners need be listed.

The chains behind the UniProt entries cited, without tags or fusion partners. Residues count along the entry.
UniProt P08754: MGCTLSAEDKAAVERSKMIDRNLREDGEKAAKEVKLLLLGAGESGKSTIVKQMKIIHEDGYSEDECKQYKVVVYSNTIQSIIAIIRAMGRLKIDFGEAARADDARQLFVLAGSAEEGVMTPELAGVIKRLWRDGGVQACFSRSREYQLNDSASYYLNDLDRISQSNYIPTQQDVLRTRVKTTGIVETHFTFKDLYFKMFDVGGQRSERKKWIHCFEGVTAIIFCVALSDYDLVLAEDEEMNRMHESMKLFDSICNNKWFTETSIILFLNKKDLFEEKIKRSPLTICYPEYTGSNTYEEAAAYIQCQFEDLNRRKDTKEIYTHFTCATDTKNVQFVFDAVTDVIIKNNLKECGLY
UniProt P07237, residues 18-508: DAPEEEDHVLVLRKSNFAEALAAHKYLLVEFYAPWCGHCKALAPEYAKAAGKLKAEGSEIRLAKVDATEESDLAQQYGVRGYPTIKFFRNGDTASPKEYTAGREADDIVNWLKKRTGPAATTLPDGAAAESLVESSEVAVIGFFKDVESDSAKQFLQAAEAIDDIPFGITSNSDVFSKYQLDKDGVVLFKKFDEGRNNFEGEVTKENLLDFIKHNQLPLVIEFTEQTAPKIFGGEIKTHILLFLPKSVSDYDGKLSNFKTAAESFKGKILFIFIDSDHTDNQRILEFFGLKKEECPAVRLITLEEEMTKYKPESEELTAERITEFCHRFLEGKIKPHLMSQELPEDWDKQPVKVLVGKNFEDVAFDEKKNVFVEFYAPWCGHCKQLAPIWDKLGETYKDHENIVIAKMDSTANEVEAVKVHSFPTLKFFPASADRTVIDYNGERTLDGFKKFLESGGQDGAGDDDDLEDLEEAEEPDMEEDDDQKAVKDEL
UniProt Q9NYU2, residues 43-1555: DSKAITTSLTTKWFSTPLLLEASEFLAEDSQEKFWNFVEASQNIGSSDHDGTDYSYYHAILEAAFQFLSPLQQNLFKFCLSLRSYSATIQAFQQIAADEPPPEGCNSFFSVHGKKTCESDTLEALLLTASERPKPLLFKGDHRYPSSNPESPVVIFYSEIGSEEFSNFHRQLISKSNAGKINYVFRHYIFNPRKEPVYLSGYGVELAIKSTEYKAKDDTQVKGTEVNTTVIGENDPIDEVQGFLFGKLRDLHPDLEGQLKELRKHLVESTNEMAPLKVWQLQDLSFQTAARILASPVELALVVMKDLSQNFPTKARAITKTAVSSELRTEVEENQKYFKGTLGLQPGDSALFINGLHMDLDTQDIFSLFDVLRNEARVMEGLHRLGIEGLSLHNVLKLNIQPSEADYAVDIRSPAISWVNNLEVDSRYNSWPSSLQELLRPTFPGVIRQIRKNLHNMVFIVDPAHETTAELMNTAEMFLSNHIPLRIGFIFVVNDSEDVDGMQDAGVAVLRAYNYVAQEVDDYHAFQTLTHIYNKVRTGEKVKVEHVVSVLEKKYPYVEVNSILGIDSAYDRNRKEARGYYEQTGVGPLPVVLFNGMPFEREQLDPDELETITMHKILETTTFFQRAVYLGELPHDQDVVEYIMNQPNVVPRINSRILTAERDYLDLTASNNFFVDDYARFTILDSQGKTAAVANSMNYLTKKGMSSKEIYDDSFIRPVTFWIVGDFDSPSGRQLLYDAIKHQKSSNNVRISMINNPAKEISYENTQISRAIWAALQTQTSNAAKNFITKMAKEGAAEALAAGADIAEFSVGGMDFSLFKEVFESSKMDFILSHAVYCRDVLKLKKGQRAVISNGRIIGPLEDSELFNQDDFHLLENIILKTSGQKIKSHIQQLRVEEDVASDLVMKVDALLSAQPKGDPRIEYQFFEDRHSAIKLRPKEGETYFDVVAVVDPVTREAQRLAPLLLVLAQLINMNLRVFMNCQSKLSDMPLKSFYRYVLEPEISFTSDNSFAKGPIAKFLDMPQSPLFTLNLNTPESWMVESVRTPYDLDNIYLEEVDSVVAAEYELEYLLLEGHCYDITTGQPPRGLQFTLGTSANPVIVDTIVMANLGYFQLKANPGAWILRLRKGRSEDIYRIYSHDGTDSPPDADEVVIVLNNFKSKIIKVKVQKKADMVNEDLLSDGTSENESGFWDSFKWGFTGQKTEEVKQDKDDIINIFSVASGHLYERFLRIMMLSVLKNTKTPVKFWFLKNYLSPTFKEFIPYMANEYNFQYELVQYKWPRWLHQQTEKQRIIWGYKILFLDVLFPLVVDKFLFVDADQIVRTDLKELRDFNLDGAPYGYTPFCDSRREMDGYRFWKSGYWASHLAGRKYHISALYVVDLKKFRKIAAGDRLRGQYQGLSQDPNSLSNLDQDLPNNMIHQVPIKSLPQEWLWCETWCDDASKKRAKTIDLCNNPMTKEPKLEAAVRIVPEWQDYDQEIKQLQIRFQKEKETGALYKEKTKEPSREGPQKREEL

T1: PLD5 (human) (UniProt Q8N7P1)
T1 sequence: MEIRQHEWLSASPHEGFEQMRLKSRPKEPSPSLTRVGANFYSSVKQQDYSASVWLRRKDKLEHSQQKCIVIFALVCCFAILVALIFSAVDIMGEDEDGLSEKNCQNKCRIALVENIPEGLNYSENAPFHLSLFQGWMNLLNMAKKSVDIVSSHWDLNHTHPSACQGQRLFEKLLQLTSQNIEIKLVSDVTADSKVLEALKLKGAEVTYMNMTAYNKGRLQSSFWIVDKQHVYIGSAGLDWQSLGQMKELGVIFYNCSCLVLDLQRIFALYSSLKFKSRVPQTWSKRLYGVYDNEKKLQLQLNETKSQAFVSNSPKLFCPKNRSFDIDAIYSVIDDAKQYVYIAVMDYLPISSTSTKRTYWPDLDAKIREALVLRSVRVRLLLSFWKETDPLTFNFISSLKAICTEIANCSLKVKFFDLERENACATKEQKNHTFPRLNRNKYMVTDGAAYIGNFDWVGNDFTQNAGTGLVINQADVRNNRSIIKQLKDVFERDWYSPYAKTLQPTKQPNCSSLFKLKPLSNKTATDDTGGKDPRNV

T2: PLD3 (human) (UniProt Q8IV08)
T2 sequence: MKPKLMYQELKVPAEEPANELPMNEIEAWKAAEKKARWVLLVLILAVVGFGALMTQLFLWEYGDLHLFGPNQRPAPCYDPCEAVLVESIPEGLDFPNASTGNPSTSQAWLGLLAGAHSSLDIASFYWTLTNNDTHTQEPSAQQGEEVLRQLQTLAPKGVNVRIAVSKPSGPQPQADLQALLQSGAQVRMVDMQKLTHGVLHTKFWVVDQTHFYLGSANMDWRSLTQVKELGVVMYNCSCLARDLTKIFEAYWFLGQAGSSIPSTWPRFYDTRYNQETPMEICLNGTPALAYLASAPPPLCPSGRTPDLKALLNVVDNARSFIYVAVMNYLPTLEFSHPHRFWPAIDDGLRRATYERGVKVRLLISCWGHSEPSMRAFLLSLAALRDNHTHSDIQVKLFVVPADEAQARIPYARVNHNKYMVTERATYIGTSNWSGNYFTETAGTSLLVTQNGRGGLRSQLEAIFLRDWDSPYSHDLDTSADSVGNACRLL

T3: PLD4 (human) (UniProt Q96BZ4)
T3 sequence: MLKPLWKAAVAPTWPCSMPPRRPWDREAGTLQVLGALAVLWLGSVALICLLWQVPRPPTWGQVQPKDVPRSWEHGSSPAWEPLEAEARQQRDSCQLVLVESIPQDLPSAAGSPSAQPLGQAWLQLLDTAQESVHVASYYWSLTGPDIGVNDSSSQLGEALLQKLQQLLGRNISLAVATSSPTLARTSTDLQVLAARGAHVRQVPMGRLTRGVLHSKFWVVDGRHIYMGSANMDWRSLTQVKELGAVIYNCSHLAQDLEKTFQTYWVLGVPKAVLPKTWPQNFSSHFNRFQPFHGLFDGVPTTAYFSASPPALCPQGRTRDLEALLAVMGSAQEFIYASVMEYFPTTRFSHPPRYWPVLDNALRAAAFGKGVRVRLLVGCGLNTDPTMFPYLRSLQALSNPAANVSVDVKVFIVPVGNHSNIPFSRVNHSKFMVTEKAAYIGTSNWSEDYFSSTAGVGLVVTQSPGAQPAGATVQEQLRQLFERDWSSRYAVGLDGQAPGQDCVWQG

T4: PLD6 (human) (UniProt Q8N2A8)
T4 sequence: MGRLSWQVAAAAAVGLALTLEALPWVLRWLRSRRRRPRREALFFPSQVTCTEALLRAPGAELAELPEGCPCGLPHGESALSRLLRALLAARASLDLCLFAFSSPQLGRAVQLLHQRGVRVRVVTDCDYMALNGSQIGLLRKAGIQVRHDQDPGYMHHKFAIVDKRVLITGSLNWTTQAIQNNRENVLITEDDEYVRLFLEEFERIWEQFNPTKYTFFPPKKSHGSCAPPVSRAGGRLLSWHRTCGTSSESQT


Key:
Assay in all cases: affinity purification with mass spectrometry; TAP-MS: C-terminal SFB-tagged PLD bait from stable HEK293A cells, lysed in NETN buffer (100 mM NaCl, 20 mM Tris-HCl pH 8.0, 0.5 mM EDTA, 0.5% Nonidet P-40), streptavidin beads, biotin elution, S protein beads, 4 °C; HCIP: SAINT score at least 0.8 and raw spectra count at least 2
PLD5 (human) = target: T1, PLD5 (human)
PLD3 (human) = target: T2, PLD3 (human)
PLD4 (human) = target: T3, PLD4 (human)
PLD6 (human) = target: T4, PLD6 (human)

Molecule | binding (PLD5 (human)) | binding (PLD3 (human)) | binding (PLD4 (human)) | binding (PLD6 (human))
GNAI3 (from UniProt P08754 1-354) | binds | – | – | –
P4HB (from UniProt P07237 18-508) | – | binds | binds | binds
UGGT1 (from UniProt Q9NYU2 43-1555) | – | binds | binds | binds
HYOU1 (protein, UniProt Q9Y4L1 33-999) LAVMSVDLGSESMKVAIVKPGVPMEIVLNKESRRKTPVIVTLKENERFFGDSAASMAIKNPKATLRYFQHLLGKQADNPHVALYQARFPEHELTFDPQRQTVHFQISSQLQFSPEEVLGMVLNYSRSLAEDFAEQPIKDAVITVPVFFNQAERRAVLQAARMAGLKVLQLINDNTATALSYGVFRRKDINTTAQNIMFYDMGSGSTVCTIVTYQMVKTKEAGMQPQLQIRGVGFDRTLGGLEMELRLRERLAGLFNEQRKGQRAKDVRENPRAMAKLLREANRLKTVLSANADHMAQIEGLMDDVDFKAKVTRVEFEELCADLFERVPGPVQQALQSAEMSLDEIEQVILVGGATRVPRVQEVLLKAVGKEELGKNINADEAAAMGAVYQAAALSKAFKVKPFVVRDAVVYPILVEFTREVEEEPGIHSLKHNKRVLFSRMGPYPQRKVITFNRYSHDFNFHINYGDLGFLGPEDLRVFGSQNLTTVKLKGVGDSFKKYPDYESKGIKAHFNLDESGVLSLDRVESVFETLVEDSAEEESTLTKLGNTISSLFGGGTTPDAKENGTDTVQEEEESPAEGSKDEPGEQVELKEEAEAPVEDGSQPPPPEPKGDATPEGEKATEKENGDKSEAQKPSEKAEAGPEGVAPAPEGEKKQKPARKRRMVEEIGVELVVLDLPDLPEDKLAQSVQKLQDLTLRDLEKQEREKAANSLEAFIFETQDKLYQPEYQEVSTEEQREEISGKLSAASTWLEDEGVGATTVMLKEKLAELRKLCQGLFFRVEERKKWPERLSALDNLLNHSSMFLKGARLIPEMDQIFTEVEMTTLEKVINETWAWKNATLAEQAKLPATEKPVLLSKDIEAKMMALDREVQYLLNKAKFTKPRPRPKDKNGTRAEPPLNASASDQGEKVIPPAGQTEDAEPISEPEKVETGSEPGDTEPLELGGPGAEPEQKEQSTGQKRPLKNDEL | – | binds | binds | binds
GANAB (protein, UniProt Q14697 29-944) ITLAVDRSNFKTCEESSFCKRQRSIRPGLSPYRALLDSLQLGPDSLTVHLIHEVTKVLLVLELQGLQKNMTRFRIDELEPRRPRYRVPDVLVADPPIARLSVSGRDENSVELTMAEGPYKIILTARPFRLDLLEDRSLLLSVNARGLLEFEHQRAPRVSQGSKDPAEGDGAQPEETPRDGDKPEETQGKAEKDEPGAWEETFKTHSDSKPYGPMSVGLDFSLPGMEHVYGIPEHADNLRLKVTEGGEPYRLYNLDVFQYELYNPMALYGSVPVLLAHNPHRDLGIFWLNAAETWVDISSNTAGKTLFGKMMDYLQGSGETPQTDVRWMSETGIIDVFLLLGPSISDVFRQYASLTGTQALPPLFSLGYHQSRWNYRDEADVLEVDQGFDDHNLPCDVIWLDIEHADGKRYFTWDPSRFPQPRTMLERLASKRRKLVAIVDPHIKVDSGYRVHEELRNLGLYVKTRDGSDYEGWCWPGSAGYPDFTNPTMRAWWANMFSYDNYEGSAPNLFVWNDMNEPSVFNGPEVTMLKDAQHYGGWEHRDVHNIYGLYVHMATADGLRQRSGGMERPFVLARAFFAGSQRFGAVWTGDNTAEWDHLKISIPMCLSLGLVGLSFCGADVGGFFKNPEPELLVRWYQMGAYQPFFRAHAHLDTGRREPWLLPSQHNDIIRDALGQRYSLLPFWYTLLYQAHREGIPVMRPLWVQYPQDVTTFNIDDQYLLGDALLVHPVSDSGAHGVQVYLPGQGEVWYDIQSYQKHHGPQTLYLPVTLSSIPVFQRGGTIVPRWMRVRRSSECMKDDPITLFVALSPQGTAQGELFLDDGHTFNYQTRQEFLLRRFSFSGNTLVSSSADPEGHFETPIWIERVVIIGAGKPAAVVLQTKGSPESRLSFQHDPETSVLVLRKPGINVASDWSIHLR | – | binds | binds | binds
OS9 (protein, UniProt Q13438 26-667) GGVGSLNLEELSEMRYGIEILPLPVMGGQSQSSDVVIVSSKYKQRYECRLPAGAIHFQREREEETPAYQGPGIPELLSPMRDAPCLLKTKDWWTYEFCYGRHIQQYHMEDSEIKGEVLYLGYYQSAFDWDDETAKASKQHRLKRYHSQTYGNGSKCDLNGRPREAEVRFLCDEGAGISGDYIDRVDEPLSCSYVLTIRTPRLCPHPLLRPPPSAAPQAILCHPSLQPEEYMAYVQRQADSKQYGDKIIEELQDLGPQVWSETKSGVAPQKMAGASPTKDDSKDSDFWKMLNEPEDQAPGGEEVPAEEQDPSPEAADSASGAPNDFQNNVQVKVIRSPADLIRFIEELKGGTKKGKPNIGQEQPVDDAAEVPQREPEKERGDPERQREMEEEEDEDEDEDEDEDERQLLGEFEKELEGILLPSDRDRLRSEVKAGMERELENIIQETEKELDPDGLKKESERDRAMLALTSTLNKLIKRLEEKQSPELVKKHKKKRVVPKKPPPSPQPTEEDPEHRVRVRVTKLRLGGPNQDLTVLEMKRENPQLKQIEGLVKELLEREGLTAAGKIEIKIVRPWAEGTEEGARWLTDEDTRNLKEIFFNILVPGAEEAQKERQRQKELESNYRRVWGSPGGEGTGDLDEFDF | – | binds | binds | binds
CHPF2 (protein, UniProt Q9P2E5 1-772) MRLSSLLALLRPALPLILGLSLGCSLSLLRVSWIQGEGEDPCVEAVGERGGPQNPDSRARLDQSDEDFKPRIVPYYRDPNKPYKKVLRTRYIQTELGSRERLLVAVLTSRATLSTLAVAVNRTVAHHFPRLLYFTGQRGARAPAGMQVVSHGDERPAWLMSETLRHLHTHFGADYDWFFIMQDDTYVQAPRLAALAGHLSINQDLYLGRAEEFIGAGEQARYCHGGFGYLLSRSLLLRLRPHLDGCRGDILSARPDEWLGRCLIDSLGVGCVSQHQGQQYRSFELAKNRDPEKEGSSAFLSAFAVHPVSEGTLMYRLHKRFSALELERAYSEIEQLQAQIRNLTVLTPEGEAGLSWPVGLPAPFTPHSRFEVLGWDYFTEQHTFSCADGAPKCPLQGASRADVGDALETALEQLNRRYQPRLRFQKQRLLNGYRRFDPARGMEYTLDLLLECVTQRGHRRALARRVSLLRPLSRVEILPMPYVTEATRVQLVLPLLVAEAAAAPAFLEAFAANVLEPREHALLTLLLVYGPREGGRGAPDPFLGVKAAAAELERRYPGTRLAWLAVRAEAPSQVRLMDVVSKKHPVDTLFFLTTVWTRPGPEVLNRCRMNAISGWQAFFPVHFQEFNPALSPQRSPPGPPGAGPDPPSPPGADPSRGAPIGGRFDRQASAEGCFYNADYLAARARLAGELAGQEEEEALEGLEVMDVFLRFSGLHLFRAVEPGLVQKFSLRDCSPRLSEELYHRCRLSNLEGLGGRAQLAMALFEQEQANST | – | binds | binds | binds
